Data as given in patent publication US11697690 (dated 2023).

Assay: peptide synthesis
Details: late stage modification step; for final HPLC purity: reversed-phase HPLC

Substance	step yield	final HPLC purity
Aminooxy-Cys-MC-VC-PABC-PEG8-Dol10	46%	>96%
Aminooxy-Cys-MC-VC-PABC-MMAE	62%	>96%
